# Inconclusive results, whose numbers are uncertain, are shown with a selection of clear calls. Potencies of inconclusive entries are doubtful fits and often do not repeat. Calls of active or inactive are those of the source. Calls come from the whole dose curve; as a rule, active = well fitted inhibition curve with a large enough effect; inconclusive = small, poorly fitted or top-dose-only effect, or effect the other way; inactive = no such curve, though single readings can be large or run the other way. Numbered stars: 1 amine (or outer) side, 2 acyl side, 3 side chain; on linkers, the order of the positions; unused ones are H or OH. Bridge positions count the residues as written; N and C are the ends. Square brackets hold non-standard residues; d marks the D form. Peptide text beside a SMILES is read from it. * marks the point of attachment. ξ: configuration not given here. ΔAla(Z-3-ureido) = NC(=O)N/C=C(\N)C(=O)O; X2 = NC1=NCCC(C(N[*:1])C(=O)[*:2])N1; ξβ3hOrn = NCCCC(N)CC(=O)*; Dap = NC[CH](N)C(=O)O
# Amino acid sequences for entries named in this document (tags omitted). A change or cut given only in a name is not applied to a line headed by its entry.
# UniProt Q9NR56: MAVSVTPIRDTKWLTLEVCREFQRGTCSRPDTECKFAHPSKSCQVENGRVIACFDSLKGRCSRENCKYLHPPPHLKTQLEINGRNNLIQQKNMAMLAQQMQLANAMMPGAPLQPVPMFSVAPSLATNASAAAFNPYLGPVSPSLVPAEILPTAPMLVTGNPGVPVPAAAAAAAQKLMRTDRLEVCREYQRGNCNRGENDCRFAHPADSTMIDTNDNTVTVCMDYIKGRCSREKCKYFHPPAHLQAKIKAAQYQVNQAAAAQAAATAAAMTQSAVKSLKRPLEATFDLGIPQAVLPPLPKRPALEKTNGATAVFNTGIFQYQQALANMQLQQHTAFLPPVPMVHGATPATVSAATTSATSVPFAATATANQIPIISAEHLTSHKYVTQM
# Target: Muscleblind-like protein 1 (Homo sapiens) (UniProt Q9NR56)
# Assay: qHTS Assay for Inhibitors of MBNL1-poly(CUG) RNA binding: Initial hit validation from the primary screen
# Conditions: TR-FRET MBNL1-His / biotin-(CUG)12 binding, 60 min; series mostly up to 57.6 µM
# Source text: NIH Chemical Genomics Center [NCGC] NIH Molecular Libraries Probe Production Centers Network [MLPCN] MLPCN Grant: R03 MH087421-01 Assay Submitter (PI): Charles Thornton NCGC Assay Overview: Expanded CTG repeats in the 3' untranslated region of the DM protein kinase (DMPK) gene causes type I myotonic dystrophy (DM1). DM1 is a multi-systemic disease with a prevalence of 1/7000. Clinical features include myotonia, progressive muscle weakness and wasting, cardiac arrhythmia, insulin resistance, hypersomnolence, cataracts, and other symptoms. The pathogenic effect of expanded CTG repeats stems from deleterious effects of the mutant transcript. CUGexp mRNA accumulates in nuclear foci and sequesters proteins of the muscleblind family, of which MBNL1 is the most common family member in skeletal muscles. The binding interaction between MBNL1 and CUGexp tracts leads to deregulation of alternative splicing and is therefore a key molecular step in the pathogenesis of DM1. To target this binding interaction, we optimized a protein-RNA binding assay in 1536-well format for identification of small molecule inhibitors of biotinylated (CUG)12 and his-tagged MBNL1 binding. Protein-RNA complex of MBNL1-His and Biotin-(CUG)12 captures the detection reagents terbium-labeled anti-His antibody and streptavidin conjugated XL665. This brings the terbium label within close proximity to XL665 to allow time-resolved fluorescence resonance energy transfer (TR-FRET). Inhibitors of MBNL1-(CUG)12 binding will disrupt TR-FRET. This deposition presents the initial confirmation of hits from the primary screen in the same assay.
# NCGC Assay Protocol Summary: This is a TR-FRET binding assay with MBNL1-His and Biotin-(CUG)12 RNA. The assay uses a ratiometric measurement. In the presence of MBNL1-(CUG)12 complex, the excitation energy is transferred to the XL665 acceptor label, causing emission at 665nm, while the 545nm donor signal remains the same. Data were normalized to the controls for basal activity (buffer only) and 100% activity (with MBNL1-(CUG)12). […] The final titration was 92 nM to 58 uM. (3) Add 1 ul of terbium labeled anti-His antibody (0.055 ng/ul final concentration) (4) Add 1 ul of streptavidin-XL665 (5 nM final concentration) (5) Incubate 60 min at room temperature (6) Detect the assay plate in a EnVision plate reader (PerkinElmer) with Ex=340 nm, Em1=665 nm and Em2=545 nm. Keywords: mytonic dystrophy type I, DM1, muscleblind like 1, MBNL1, CUG expansion, protein-RNA binding inhibitor, high throughput screening, MLSMR, MLSCN, NIH Roadmap, qHTS and NCGC
row,SMILES,Potency
1,O=C1Cc2ccccc2C(=O)N1Cc1ccccc1,inactive
2,Cc1oc2nc(SCCCC(=O)NCCO)nc(N)c2c1C,"inconclusive: 65.1 µM [inhibitor, partial curve]"
3,Oc1ccc(/C=N/Nc2nccnc2Cl)c(O)c1,"inconclusive: 32.6 µM [activator, partial curve]"
4,COc1ccc(N2CCN(CC(=O)Nc3ccc(-n4cnnn4)cc3)CC2)cc1,inactive
5,CCOC(=O)CCCCC(=O)c1[nH]c(=O)[nH]c1CSc1nnc2c3ccccc3n(C(C)C)c2n1,"inconclusive: 32.6 µM [inhibitor, partial curve, poor fit]"
6,CN(C(=O)COC(=O)c1ccc(-c2ccc(O)cc2)cc1)C1CCS(=O)(=O)C1 (stereo not given),"inconclusive: 51.7 µM [inhibitor, partial curve, poor fit]"
7,O=C1NC(=O)C2C1C(c1ccccc1)N1C3C(=O)NC(=O)C3C(c3ccccc3)N21 (stereo not given),"inconclusive: 41.1 µM [inhibitor, partial curve]"
8,N#Cc1c(N)nc(SCC(=O)NCCc2ccccc2)c(C#N)c1-c1cccs1,"inconclusive: 25.9 µM [activator, partial curve]"
9,CCC(CC)NC(=O)Nc1ccc(F)c(Cl)c1,"inconclusive: 51.7 µM [inhibitor, partial curve, poor fit]"
10,COc1cccc(/C=N/Nc2nccnc2Cl)c1O,"inconclusive: 32.6 µM [activator, partial curve]"
11,CN1CCc2cc(NC(=O)Nc3cccnc3)ccc21,"inconclusive: 22.4 µM [inhibitor, partial curve]"
12,COc1ccc(C)cc1S(=O)(=O)Nc1ccc(F)c(Cl)c1,inactive
13,C=CCn1c(NS(=O)(=O)c2ccccc2)c(S(=O)(=O)c2ccc(C)cc2)c2nc3ccccc3nc21,inactive
14,Cn1nccc1NC(=O)Nc1cccc(Cl)c1,"inconclusive: 8.19 µM [inhibitor, full curve, poor fit]"
15,COc1ccc(CCNC(=O)C2CC(=O)N(c3ccc(F)cc3)C2)cc1OC (stereo not given),inactive
16,Cc1cc(Nc2ccccc2)nc(NCc2ccccc2)n1,"inconclusive: 1630 µM [inhibitor, partial curve, poor fit]"
17,Cc1cc(N2CCN(C)CC2)nc2ccc(NC(=S)NCCN3CCc4ccccc4C3)cc12,inactive
18,O=C(O)CCCCCCCC(=O)O,"inconclusive: 206 µM [inhibitor, partial curve]"
19,COC(=O)NCc1cc2cc(Cl)ccc2[nH]1,inactive
20,CCCN1C[C@H](CSC)C[C@@H]2c3cccc4[nH]cc(c34)C[C@H]21,"inconclusive: 8.91 µM [inhibitor, partial curve]"

row,SMILES,Potency
1,NCCCC(N)CC(=O)NCC1NC(=O)C(CO)NC(=O)C(N)CNC(=O)C(C2CCN=C(N)N2)NC(=O)/C(=C/NC(N)=O)NC1=O (stereo not drawn) (H-[Dap]S[Dap](ξβ3hOrn)[ΔAla(Z-3-ureido)][X2]; lactam 1-C; configuration not given here),inactive
2,CC1(C)CCC2=C(O1)c1ccccc1C(=O)C2=O,"inconclusive: 14.1 µM [inhibitor, full curve]"
3,COc1cc(C(=O)N/N=C/c2ccc(OC)c(CN3CCN(c4ccc(F)cc4)CC3)c2)ccc1O,"inconclusive: 326 µM [inhibitor, single point]"
4,COc1ccc(CCNC(=O)C2CC(=O)N(c3ccc(C)cc3)C2)cc1OC (stereo not given),inconclusive: 0.0012 µM [inhibitor]
5,COc1ccc(/C=N/Nc2nccnc2Cl)cc1,"inconclusive: 29.1 µM [activator, partial curve, poor fit]"
6,O.O.O.O.O.O.O.O=S(=O)([O-])[O-].[Co+2],active: 3.26 µM
7,c1csc(C(c2nnnn2C2CCCCC2)N2CCCC3(CCCCC3)C2)c1 (stereo not given),inactive
8,O=C(NC1CCCCC1)c1ccccc1NC(=O)C1CC(=O)N(c2ccccc2)C1 (stereo not given),inactive
9,O=C(NCCCN1CCCCCC1)c1ccc(CS(=O)(=O)Cc2ccccc2F)o1,"inconclusive: 3260 µM [inhibitor, partial curve, poor fit]"
10,COc1ccc(NC(=O)NC(C(F)(F)F)C(F)(F)F)cc1,"inconclusive: 51.7 µM [inhibitor, partial curve]"
11,Cc1ccc(NC(=O)CSc2ncc(S(=O)(=O)c3ccccc3)c(=O)[nH]2)cc1C,"inconclusive: 81.9 µM [inhibitor, partial curve, poor fit]"
12,C[C@@H]1O[C@@H](OC[C@H]2O[C@@H](Oc3c(-c4ccc(O)c(O)c4)oc4cc(O)cc(O)c4c3=O)[C@H](O)[C@@H](O)[C@@H]2O)[C@H](O)[C@H](O)[C@H]1O,"inconclusive: 5.17 µM [activator, full curve]"
13,COc1ccc(CCNC(=O)C2CC(=O)N(c3ccccc3)C2)cc1OC (stereo not given),inactive
14,CCOC(=O)CCCCC(=O)c1[nH]c(=O)[nH]c1Cn1cnc2ccccc21,active: 10.3 µM
15,COc1ccc(NC(=O)Nn2cnnc2)cc1OC,active: 25.9 µM
16,Cc1ccc(-c2cc(-c3ccccc3C)[nH]n2)c(O)c1,inactive
17,CC1=C(C(N)=O)C(c2cccnc2)n2nc(SCc3ccccc3Cl)nc2N1 (stereo not given),inactive
18,CC(C)OC(=O)CSc1nnc(-c2cnccn2)n1C,"inconclusive: 0.0291 µM [inhibitor, partial curve, poor fit]"
19,O=C(Nc1ccc(Br)cc1)Nn1cnnc1,active: 41.1 µM
20,O=C(CCO)c1ccc(O)cc1,"inconclusive: 51.7 µM [inhibitor, partial curve]"

# 3 entries from above, tab-delimited.
row	SMILES	Potency
6	CN(C(=O)COC(=O)c1ccc(-c2ccc(O)cc2)cc1)C1CCS(=O)(=O)C1 (stereo not given)	inconclusive: 51.7 µM [inhibitor, partial curve, poor fit]
11	CN1CCc2cc(NC(=O)Nc3cccnc3)ccc21	inconclusive: 22.4 µM [inhibitor, partial curve]
16	Cc1ccc(-c2cc(-c3ccccc3C)[nH]n2)c(O)c1	inactive

# From PubChem BioAssay AID493199 (National Center for Advancing Translational Sciences (NCATS), 2011)
